Assay results as given in patent US20040170969A1.
Results are given in words; binding and its absence hold for the method and conditions named. Binding seen in cells or lysates may run through a third protein. Some results given as binding are weak or reduced against the parent protein; the word gives no strength. For part of these data: Sequences can lack the tags named with a protein.

Amino acid sequences for entries named in this document (tags omitted). A change or cut given only in a name is not applied to a line headed by its entry. Chains listed by the source or under a name are the forms on record and can include a tag or linker. Residues count along the entry.
pICln (GI 4502891) (P54105, residues 2-237): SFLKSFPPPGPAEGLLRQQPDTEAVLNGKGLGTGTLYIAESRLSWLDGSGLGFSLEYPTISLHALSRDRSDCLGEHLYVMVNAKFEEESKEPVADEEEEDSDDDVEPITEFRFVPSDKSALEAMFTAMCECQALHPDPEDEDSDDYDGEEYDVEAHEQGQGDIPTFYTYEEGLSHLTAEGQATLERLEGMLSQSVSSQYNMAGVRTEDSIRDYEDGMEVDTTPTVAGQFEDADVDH
FLAG-pICln (P54105, form named): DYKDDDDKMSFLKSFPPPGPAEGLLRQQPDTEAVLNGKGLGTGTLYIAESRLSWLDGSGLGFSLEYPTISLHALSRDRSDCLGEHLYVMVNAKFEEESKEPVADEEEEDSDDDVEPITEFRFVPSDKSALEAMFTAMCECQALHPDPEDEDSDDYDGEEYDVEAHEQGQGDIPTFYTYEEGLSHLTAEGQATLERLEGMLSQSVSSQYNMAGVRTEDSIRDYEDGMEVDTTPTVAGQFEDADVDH
UniProt P62318: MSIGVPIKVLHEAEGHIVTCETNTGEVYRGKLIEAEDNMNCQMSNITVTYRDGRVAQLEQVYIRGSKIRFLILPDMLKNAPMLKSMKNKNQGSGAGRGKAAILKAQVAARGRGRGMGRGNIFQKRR
protein 4.1 isoB (GI 182074) (P11171, form named): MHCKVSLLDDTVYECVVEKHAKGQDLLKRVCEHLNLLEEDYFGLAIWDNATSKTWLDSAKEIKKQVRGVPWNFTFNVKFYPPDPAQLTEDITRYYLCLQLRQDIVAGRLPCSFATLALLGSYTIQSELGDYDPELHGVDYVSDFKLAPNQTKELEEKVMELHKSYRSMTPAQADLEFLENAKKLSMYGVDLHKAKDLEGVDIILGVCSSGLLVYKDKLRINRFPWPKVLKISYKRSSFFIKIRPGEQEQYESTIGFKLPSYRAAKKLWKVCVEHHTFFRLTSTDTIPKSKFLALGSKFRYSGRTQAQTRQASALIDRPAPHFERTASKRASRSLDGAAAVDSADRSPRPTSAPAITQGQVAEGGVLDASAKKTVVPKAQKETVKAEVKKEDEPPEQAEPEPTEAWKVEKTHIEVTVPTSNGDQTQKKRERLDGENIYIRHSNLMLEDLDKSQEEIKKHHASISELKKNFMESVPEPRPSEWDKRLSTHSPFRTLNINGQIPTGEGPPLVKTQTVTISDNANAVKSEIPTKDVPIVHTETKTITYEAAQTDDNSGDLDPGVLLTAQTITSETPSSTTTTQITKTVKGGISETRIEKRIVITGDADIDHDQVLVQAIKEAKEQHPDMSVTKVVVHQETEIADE
UniProt P57678: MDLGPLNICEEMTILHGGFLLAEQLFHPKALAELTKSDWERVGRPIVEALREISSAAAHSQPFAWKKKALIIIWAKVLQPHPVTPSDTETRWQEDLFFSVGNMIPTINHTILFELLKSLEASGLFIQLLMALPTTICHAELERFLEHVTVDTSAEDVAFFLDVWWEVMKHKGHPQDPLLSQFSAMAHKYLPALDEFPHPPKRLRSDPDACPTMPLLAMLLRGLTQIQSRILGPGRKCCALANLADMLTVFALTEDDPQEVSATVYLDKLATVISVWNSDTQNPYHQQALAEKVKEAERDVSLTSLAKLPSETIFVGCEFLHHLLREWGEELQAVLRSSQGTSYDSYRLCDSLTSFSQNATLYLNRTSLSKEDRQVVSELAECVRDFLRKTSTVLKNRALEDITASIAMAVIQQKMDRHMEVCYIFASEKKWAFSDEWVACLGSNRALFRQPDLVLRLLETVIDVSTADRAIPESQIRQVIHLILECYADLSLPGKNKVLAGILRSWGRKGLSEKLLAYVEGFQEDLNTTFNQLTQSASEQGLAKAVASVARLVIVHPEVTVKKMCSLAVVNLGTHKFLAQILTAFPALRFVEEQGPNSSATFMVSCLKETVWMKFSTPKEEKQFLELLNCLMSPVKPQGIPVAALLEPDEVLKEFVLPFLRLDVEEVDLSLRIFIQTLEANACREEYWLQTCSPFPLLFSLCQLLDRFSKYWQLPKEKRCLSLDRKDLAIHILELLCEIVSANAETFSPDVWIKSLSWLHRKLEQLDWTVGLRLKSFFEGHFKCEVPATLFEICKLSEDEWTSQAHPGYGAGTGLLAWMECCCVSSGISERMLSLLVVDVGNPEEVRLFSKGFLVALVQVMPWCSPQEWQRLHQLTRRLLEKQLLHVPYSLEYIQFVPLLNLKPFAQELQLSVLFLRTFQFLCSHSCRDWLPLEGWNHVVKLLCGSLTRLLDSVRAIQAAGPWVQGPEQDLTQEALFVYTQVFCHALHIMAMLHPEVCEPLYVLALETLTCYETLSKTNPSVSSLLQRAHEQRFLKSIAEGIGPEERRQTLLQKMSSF
UniProt O14744: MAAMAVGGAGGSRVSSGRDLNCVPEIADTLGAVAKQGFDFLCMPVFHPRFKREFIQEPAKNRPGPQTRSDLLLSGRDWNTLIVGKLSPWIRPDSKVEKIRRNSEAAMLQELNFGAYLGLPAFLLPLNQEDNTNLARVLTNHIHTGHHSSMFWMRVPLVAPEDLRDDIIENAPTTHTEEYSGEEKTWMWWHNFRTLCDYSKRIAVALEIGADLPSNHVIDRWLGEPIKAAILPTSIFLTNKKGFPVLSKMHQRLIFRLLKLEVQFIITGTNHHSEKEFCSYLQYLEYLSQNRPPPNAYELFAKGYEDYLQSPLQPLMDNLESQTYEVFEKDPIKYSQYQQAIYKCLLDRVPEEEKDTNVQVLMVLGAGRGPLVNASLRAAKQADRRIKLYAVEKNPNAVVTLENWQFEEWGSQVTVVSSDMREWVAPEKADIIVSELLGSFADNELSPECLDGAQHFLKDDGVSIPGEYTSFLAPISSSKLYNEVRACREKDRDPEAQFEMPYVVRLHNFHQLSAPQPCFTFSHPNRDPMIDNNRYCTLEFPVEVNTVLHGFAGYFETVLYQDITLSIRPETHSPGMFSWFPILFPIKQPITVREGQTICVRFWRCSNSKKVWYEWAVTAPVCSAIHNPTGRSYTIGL

Columns and labels:
[1] = biological target: FLAG-pICln (human) (UniProt P54105); test: anti-FLAG co-IP of FLAG-pICln from 293T cells, MS
[2] = biological target: FLAG-pICln (human) (UniProt P54105); test: anti-FLAG co-IP of FLAG-pICln, MS
[3] = biological target: smD3 (bait) (UniProt P62318); test: co-IP with smD3 bait, MS
[4] = biological target: 4.1SVWL2 (bait) (human) (UniProt P11171); test: co-IP with 4.1SVWL2 bait, MS
[5] = biological target: T1, Flag-epitope-tagged murine Ras-GRF2 (murine) (UniProt P70392); test: anti-FLAG co-IP of Flag-GRF2 from 293 cells, MS
T1 sequence (looked up): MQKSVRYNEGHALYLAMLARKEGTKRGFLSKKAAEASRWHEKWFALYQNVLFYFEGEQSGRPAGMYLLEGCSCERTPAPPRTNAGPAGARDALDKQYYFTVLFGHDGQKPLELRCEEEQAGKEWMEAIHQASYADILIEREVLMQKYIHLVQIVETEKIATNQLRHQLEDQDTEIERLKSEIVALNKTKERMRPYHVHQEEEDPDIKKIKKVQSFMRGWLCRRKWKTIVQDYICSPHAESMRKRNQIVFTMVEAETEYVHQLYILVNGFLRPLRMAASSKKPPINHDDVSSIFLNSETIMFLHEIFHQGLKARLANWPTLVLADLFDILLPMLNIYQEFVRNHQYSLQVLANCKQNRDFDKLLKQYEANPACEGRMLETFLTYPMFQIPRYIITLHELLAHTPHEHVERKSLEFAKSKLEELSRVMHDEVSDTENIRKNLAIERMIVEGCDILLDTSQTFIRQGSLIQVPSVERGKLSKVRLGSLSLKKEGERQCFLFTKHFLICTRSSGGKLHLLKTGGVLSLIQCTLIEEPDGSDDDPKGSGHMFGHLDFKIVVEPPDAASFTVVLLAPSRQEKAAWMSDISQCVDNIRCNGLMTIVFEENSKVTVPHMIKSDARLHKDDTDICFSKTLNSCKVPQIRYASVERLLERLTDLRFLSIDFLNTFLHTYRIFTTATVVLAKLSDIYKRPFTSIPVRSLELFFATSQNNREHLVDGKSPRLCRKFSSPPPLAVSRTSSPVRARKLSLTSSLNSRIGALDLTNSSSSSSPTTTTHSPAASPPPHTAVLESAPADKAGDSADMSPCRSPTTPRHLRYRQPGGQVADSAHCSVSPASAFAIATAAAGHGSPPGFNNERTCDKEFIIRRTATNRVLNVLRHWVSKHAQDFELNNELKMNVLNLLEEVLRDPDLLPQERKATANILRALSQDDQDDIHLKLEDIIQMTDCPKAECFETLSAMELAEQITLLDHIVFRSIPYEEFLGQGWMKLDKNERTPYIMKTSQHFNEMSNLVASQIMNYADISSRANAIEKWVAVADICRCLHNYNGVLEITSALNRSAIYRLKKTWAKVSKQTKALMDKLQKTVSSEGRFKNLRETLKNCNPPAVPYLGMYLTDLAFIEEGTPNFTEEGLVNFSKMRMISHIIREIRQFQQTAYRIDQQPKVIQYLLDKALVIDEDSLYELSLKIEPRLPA

[6] = biological target: T1, Flag-epitope-tagged murine Ras-GRF2 (murine); test: anti-FLAG co-IP of Flag-GRF2, MS

Substance	binding [1]	binding [2]	binding [3]	other results
SMD3 (GI 4759160) (from UniProt P62318 2-126)	binds	binds	–	–
gemin4 (GI 7657122) (from UniProt P57678 1-1058)	–	–	binds	–
protein 4.1 isoB (GI 182074) (from UniProt P11171 1-641)	binds	binds	–	–
pICln (GI 4502891) (from UniProt P54105 2-237)	–	–	–	binding [4]: binds
DKFZP434D174 protein (GI 11094403) (from UniProt P57678 1-1058)	–	–	binds	–
Skb1 (GI 2323410) (from UniProt O14744 1-637) (enzyme)	–	–	–	binding [5]: binds; binding [6]: binds
